From article doi:10.1101/2025.02.26.640373

Target: SHP2^T42A-TurboID (UniProt Q06124)
Test: proximity labelling; SHP2-TurboID variants against a TurboID-only control in SHP2 knock-out HEK 293 cells; exogenous biotin; biotinylated proteins enriched and identified by mass spectrometry; hits p<0.05 and log2 fold-change >1; cells unstimulated or stimulated with 100 ng/mL EGF; SHP2^WT also after 4 hours with 1 uM TNO155

- binding: binds
B1: ACOX1 (enzyme, UniProt Q15067 1-660)
chain: MNPDLRRERDSASFNPELLTHILDGSPEKTRRRREIENMILNDPDFQHEDLNFLTRSQRYEVAVRKSAIMVKKMREFGIADPDEIMWFKKLHLVNFVEPVGLNYSMFIPTLLNQGTTAQKEKWLLSSKGLQIIGTYAQTEMGHGTHLRGLETTATYDPETQEFILNSPTVTSIKWWPGGLGKTSNHAIVLAQLITKGKCYGLHAFIVPIREIGTHKPLPGITVGDIGPKFGYDEIDNGYLKMDNHRIPRENMLMKYAQVKPDGTYVKPLSNKLTYGTMVFVRSFLVGEAARALSKACTIAIRYSAVRHQSEIKPGEPEPQILDFQTQQYKLFPLLATAYAFQFVGAYMKETYHRINEGIGQGDLSELPELHALTAGLKAFTSWTANTGIEACRMACGGHGYSHCSGLPNIYVNFTPSCTFEGENTVMMLQTARFLMKSYDQVHSGKLVCGMVSYLNDLPSQRIQPQQVAVWPTMVDINSPESLTEAYKLRAARLVEIAAKNLQKEVIHRKSKEVAWNLTSVDLVRASEAHCHYVVVKLFSEKLLKIQDKAIQAVLRSLCLLYSLYGISQNAGDFLQGSIMTEPQITQVNQRVKELLTLIRSDAVALVDAFDFQDVTLGSVLGRYDGNVYENLFEWAKNSPLNKAEVHESYKHLKSLQSKL

Results are given in words; binding and its absence hold for the method and conditions named. In cells and extracts the contact can be indirect. A yes stands for co-enrichment or nearness to the bait. Other partners may have been found.
